Data as given in PMC12132915 (2025).

Test: general procedure: Fmoc solid-phase peptide synthesis; Rink amide; DIC/Oxyma; HATU/DIEA for benzoic acid derivatives
Conditions: whole synthesis, scale 0.1 mmol

In the case of OMe-Ald-W5, the isolated yield (overall) was 10% overall yield and the isolated mass was 22 mg.
